Reference: publication PMC10070233
These are yes or no findings as the source states them, for the method shown. Some results given as binding are weak or reduced against the parent protein; the word gives no strength.

Chains of the proteins cited; added tags and fusions are not shown. Residues count along the entry.
UniProt P47929: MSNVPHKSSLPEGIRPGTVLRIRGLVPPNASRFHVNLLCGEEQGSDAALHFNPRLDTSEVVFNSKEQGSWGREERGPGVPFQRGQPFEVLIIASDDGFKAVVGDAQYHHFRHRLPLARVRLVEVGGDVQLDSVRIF
UniProt P09382: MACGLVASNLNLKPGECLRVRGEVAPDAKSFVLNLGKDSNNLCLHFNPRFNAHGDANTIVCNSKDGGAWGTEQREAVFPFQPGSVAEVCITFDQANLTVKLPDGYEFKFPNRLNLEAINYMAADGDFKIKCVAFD
UniProt O00214: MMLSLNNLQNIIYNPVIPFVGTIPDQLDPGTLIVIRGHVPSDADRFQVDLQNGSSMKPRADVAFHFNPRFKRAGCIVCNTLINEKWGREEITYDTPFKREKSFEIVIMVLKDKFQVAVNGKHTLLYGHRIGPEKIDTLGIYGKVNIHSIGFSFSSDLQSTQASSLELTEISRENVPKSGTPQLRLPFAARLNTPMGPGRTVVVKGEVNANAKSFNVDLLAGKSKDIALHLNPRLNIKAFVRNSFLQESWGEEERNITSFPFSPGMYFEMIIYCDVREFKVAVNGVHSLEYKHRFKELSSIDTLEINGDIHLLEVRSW
UniProt P11362, residues 22-376: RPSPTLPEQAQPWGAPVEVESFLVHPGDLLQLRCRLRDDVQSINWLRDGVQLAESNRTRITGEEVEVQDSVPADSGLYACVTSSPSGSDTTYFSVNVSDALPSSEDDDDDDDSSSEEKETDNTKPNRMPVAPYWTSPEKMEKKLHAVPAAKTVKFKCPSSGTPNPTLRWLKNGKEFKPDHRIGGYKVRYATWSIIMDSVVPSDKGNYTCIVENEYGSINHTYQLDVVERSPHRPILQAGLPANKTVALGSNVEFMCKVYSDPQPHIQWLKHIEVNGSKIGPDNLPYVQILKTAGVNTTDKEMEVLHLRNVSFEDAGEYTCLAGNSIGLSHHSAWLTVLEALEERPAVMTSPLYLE

What was measured:
Test in all cases: far-Western, overlay or dot blot; galectin array: recombinant galectins (0.5 pmol) dot-blotted on PVDF, blocked with 3% BSA, incubated with FGFRs-Fc or Fc (0.9 pM) overnight; detection with anti-Fc mAb-HRP and chemiluminescence; both purified
galectin-7 (human) = galectin-7 (human) (UniProt P47929)
galectin-14 (human) = target: T1, galectin-14 (human) (UniProt Q8TCE9)
T1 sequence: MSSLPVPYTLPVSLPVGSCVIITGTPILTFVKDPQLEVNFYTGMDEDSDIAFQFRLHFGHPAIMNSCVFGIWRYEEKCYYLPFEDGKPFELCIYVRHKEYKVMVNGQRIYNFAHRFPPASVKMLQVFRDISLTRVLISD

galectin-1 (human) = galectin-1 (human) (UniProt P09382)
galectin-16 (human) = target: T2, galectin-16 (human) (UniProt A8MUM7)
T2 sequence: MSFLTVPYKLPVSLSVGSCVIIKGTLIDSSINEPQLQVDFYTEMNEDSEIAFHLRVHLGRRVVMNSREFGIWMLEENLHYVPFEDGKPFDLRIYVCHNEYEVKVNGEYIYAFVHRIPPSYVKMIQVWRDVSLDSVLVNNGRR

galectin-10 (human) = target: T3, galectin-10 (human) (UniProt Q05315)
T3 sequence: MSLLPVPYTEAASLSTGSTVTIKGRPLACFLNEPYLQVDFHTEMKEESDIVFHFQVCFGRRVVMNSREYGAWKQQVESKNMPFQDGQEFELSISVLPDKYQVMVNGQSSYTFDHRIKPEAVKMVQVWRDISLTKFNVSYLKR

galectin-9 (human) = galectin-9 (human) (UniProt O00182)
galectin-8 (human) = galectin-8 (human) (UniProt O00214)
galectin-4 (human) = target: T4, galectin-4 (human) (UniProt P56470)
T4 sequence: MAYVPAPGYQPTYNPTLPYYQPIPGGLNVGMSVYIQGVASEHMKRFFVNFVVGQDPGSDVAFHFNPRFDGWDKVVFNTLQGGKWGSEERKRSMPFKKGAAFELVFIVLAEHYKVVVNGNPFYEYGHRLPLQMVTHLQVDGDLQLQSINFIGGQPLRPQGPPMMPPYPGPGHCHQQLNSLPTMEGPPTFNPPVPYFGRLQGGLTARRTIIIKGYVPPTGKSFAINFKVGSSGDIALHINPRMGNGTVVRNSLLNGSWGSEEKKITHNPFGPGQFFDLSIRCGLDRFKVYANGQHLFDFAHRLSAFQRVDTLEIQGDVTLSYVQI

Measured: binding

extracellular region of FGFR1 fused to the Fc fragment of human IgG1 (from UniProt P11362 22-376) (Fc fusion)
binds: all assays above
